Assay results taken from PMC7819943, “Rice protein-binding microarrays: a tool to detect cis-acting elements near promoter regions in rice”.
This is one part of the list.

The chains behind the UniProt entries cited, without tags or fusion partners.
UniProt Q0JBA9, entry or part of it: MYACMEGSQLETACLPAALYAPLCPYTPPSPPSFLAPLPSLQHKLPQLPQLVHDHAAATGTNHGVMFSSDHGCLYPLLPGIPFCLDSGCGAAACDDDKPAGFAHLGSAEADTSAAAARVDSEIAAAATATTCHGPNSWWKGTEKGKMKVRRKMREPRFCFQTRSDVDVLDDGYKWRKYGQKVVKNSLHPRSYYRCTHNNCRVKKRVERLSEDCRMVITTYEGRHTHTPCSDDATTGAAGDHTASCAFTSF

These sequences were tested against OsWRKY34 (Oryza sativa, UniProt Q0JBA9 1-250) (assay: protein-binding microarray (RPBM); PBS, 2% BSA, 51.3 ng/ul salmon testes DNA, 50 uM zinc acetate, 200 nM TF, 25 C, 1 h; high values mean tight binding). Details: protein: recombinant; tags: N-terminal polyhistidine and DsRed monomer fusion (pET32a); label: CyDye5-dUTP incorporated in the synthesized complementary strand; 3' TTTTT single-stranded linker to array surface; dsDNA, one strand shown.
In short: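 Binding signal is defined as the fluorescence intensity of each feature in arbitrary units, read on an Axon 4000B scanner. Transcription factors with N-terminal polyhistidine and DsRed fusions came from E. coli BL21-CodonPlus and were purified on Ni–NTA. They were incubated at 200 nM for 1 h at 25 °C on a custom Agilent array that had been made double-stranded with Cy5-dUTP, with 50 µM zinc acetate present, and the array was washed.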

Sequence	binding signal
CACCAACCCACCACTCCTCGTTCCAATCTCGAATCCTTCGCGGAGTCACCTAGTGCAG	8440 fluorescence intensity (a.u.)
ATACCTCCGTCGATCTTTTGGGCTGATTCCTCCTTCCCCGCGGAGTCACCTAGTGCAG	8680 fluorescence intensity (a.u.)
CATATGCACTAACAAAACCGAGTAGGAGGGTGGGTATTTGCGGAGTCACCTAGTGCAG	8580 fluorescence intensity (a.u.)
TCACTTTGCGCGATATCCTACTGCTAAAACTGCGAAGTCACGGAGTCACCTAGTGCAG	8950 fluorescence intensity (a.u.)
CTTTATTGTTGTTTGTTATCATTTGTGTTCTAGATGAAGTCGGAGTCACCTAGTGCAG	10900 fluorescence intensity (a.u.)
CCGCCCTTCTTCGTGCCACCGCCGCCGCCTCTCCGCTTCGCGGAGTCACCTAGTGCAG	9850 fluorescence intensity (a.u.)
ACCCTAGGCCAGTATATGCTCCGAAGATCGTCTCTTTGACCGGAGTCACCTAGTGCAG	10400 fluorescence intensity (a.u.)
AGTCTTTGGTCCACAGCTTCATGCATCCATCATATCGACACGGAGTCACCTAGTGCAG	8260 fluorescence intensity (a.u.)
AGGGGTGGATGCGCGTGGGCTGGTGGTGGTGGTGGGGATGCGGAGTCACCTAGTGCAG	19100 fluorescence intensity (a.u.)
ACCCTAGCCTAGTTTGCCACGACTTGGTCCCACCTGGCAGCGGAGTCACCTAGTGCAG	10200 fluorescence intensity (a.u.)
ATTGGAGGTGGTCTTCGTGCATCTGCTTTATCTACTTCTCCGGAGTCACCTAGTGCAG	11600 fluorescence intensity (a.u.)
CTCCTGACTCCTCCTCGGTTCCTCTTCCTCTCGAGCCCTTCGGAGTCACCTAGTGCAG	9950 fluorescence intensity (a.u.)
CCAGCACATCTAACCCAGTCCCAGTTCATATATATATCACCGGAGTCACCTAGTGCAG	9820 fluorescence intensity (a.u.)
AGACACATTCACTTTCTACACACAGACACATTTGGTTAATCGGAGTCACCTAGTGCAG	10800 fluorescence intensity (a.u.)
TCAAACCTCTATATAGTTTCTCCTCCTGTCCGTCCAAGCACGGAGTCACCTAGTGCAG	12000 fluorescence intensity (a.u.)
CCCTCTCAACCCGAGCCTCGCTCCTCCTCGCGTCGTCGTCCGGAGTCACCTAGTGCAG	9770 fluorescence intensity (a.u.)
AATCAACGACGTCTTGCTGCAGATTTTCTATGTTTTCAGTCGGAGTCACCTAGTGCAG	10100 fluorescence intensity (a.u.)
GGCCGCTGTCTAGCCACTGACATCGTTTTTGCCGCGCCGCCGGAGTCACCTAGTGCAG	8100 fluorescence intensity (a.u.)
GTTGTAGGTTTTTGGTTTTTTTTGTTGTGTGTTCTCCTCTCGGAGTCACCTAGTGCAG	9640 fluorescence intensity (a.u.)
CACCGCCTCTGCTCCCGCGCCGCCGCAGCGGCTCCCTCCTCGGAGTCACCTAGTGCAG	8230 fluorescence intensity (a.u.)
AGATAGTGGTGGTGGTCTGTGCATCGTTGACTTGATCATGCGGAGTCACCTAGTGCAG	10900 fluorescence intensity (a.u.)

Three consecutive records already listed, for reference:
Sequence	binding signal
ACCCTAGGCCAGTATATGCTCCGAAGATCGTCTCTTTGACCGGAGTCACCTAGTGCAG	10400 fluorescence intensity (a.u.)
AGTCTTTGGTCCACAGCTTCATGCATCCATCATATCGACACGGAGTCACCTAGTGCAG	8260 fluorescence intensity (a.u.)
AGGGGTGGATGCGCGTGGGCTGGTGGTGGTGGTGGGGATGCGGAGTCACCTAGTGCAG	19100 fluorescence intensity (a.u.)

(further entries)

Sequence	binding signal
ACTTTCTCCGTTTCGTATTATAAGTCCGTTTGATCTTTTTCGGAGTCACCTAGTGCAG	8580 fluorescence intensity (a.u.)
CTTTGCTCCAAGCCTACATTATTCACTTTTGGGCCTGTTCCGGAGTCACCTAGTGCAG	8900 fluorescence intensity (a.u.)
TGATGTGGTGCCTACGTGGCTTGTTTGACTAGGTCTCCGTCGGAGTCACCTAGTGCAG	12100 fluorescence intensity (a.u.)
TTTTTCGCCGCGCTTTCCTCCGCAGGTTCACAATTCCGACCGGAGTCACCTAGTGCAG	8640 fluorescence intensity (a.u.)
ACACCACACTACCCCGCCCCACGCTATAAATACCAGCTCTCGGAGTCACCTAGTGCAG	8870 fluorescence intensity (a.u.)
CACGGTGGCCCTTTGTGTGCCTGGCCATCACTCCCGACCGCGGAGTCACCTAGTGCAG	9320 fluorescence intensity (a.u.)
CATTTTGCCTCCCTCATCTCTTGCGTTTGTGTGCCCTCAACGGAGTCACCTAGTGCAG	9340 fluorescence intensity (a.u.)
GGATGCTTATATTATGTTGGTTGCAGCAAATTTGTTATAACGGAGTCACCTAGTGCAG	8030 fluorescence intensity (a.u.)
AAGCCATCATTAGCACATGTCGGTTACTGTAGTACTTATGCGGAGTCACCTAGTGCAG	9690 fluorescence intensity (a.u.)
TCTTCACATGCTATTTTGTGTTATTCTTGCCTATAAATGACGGAGTCACCTAGTGCAG	8310 fluorescence intensity (a.u.)
AGGTTTTGATTGAGCCAATGGGGTGGGCAGTTTTTGGTGCCGGAGTCACCTAGTGCAG	14500 fluorescence intensity (a.u.)
CTTTCTCCCATCCGCTGCCTGCCTCCATAGCTAGCCCACTCGGAGTCACCTAGTGCAG	8370 fluorescence intensity (a.u.)
AGTTACCAAATAACCAAACCCCAAGAGATACGCCGTTGACCGGAGTCACCTAGTGCAG	14800 fluorescence intensity (a.u.)
GTGGTGGAGGTGGTGTCGTCGACGGCATATTTAGACTTGGCGGAGTCACCTAGTGCAG	10400 fluorescence intensity (a.u.)
TCAGTTTTTGTTTGCAATGTTTGACCACTCGTCTTATTCACGGAGTCACCTAGTGCAG	18500 fluorescence intensity (a.u.)
GCCCAGCCTGCCAACCTCACATCCCGTCATCGAGATTCGCCGGAGTCACCTAGTGCAG	8720 fluorescence intensity (a.u.)
CCCCAAAATTTTTCACCATGTCACATCAAACGTTTGAACACGGAGTCACCTAGTGCAG	8490 fluorescence intensity (a.u.)
CGAGCACACACACTCACTCCCTGTCTCCTCCTCCTCCTCCCGGAGTCACCTAGTGCAG	10600 fluorescence intensity (a.u.)
TCTACCGGTGTTTGTGTTGCGCGTCCGTGCTCTGGGTGGTCGGAGTCACCTAGTGCAG	9060 fluorescence intensity (a.u.)
GCAATGTGGTTGTGGATTTTTTTGGTAGGGAGGTGAGATGCGGAGTCACCTAGTGCAG	8040 fluorescence intensity (a.u.)
TTGTCAATTACTGCTCCGGTGACTGTTAATTTGGATTTTCCGGAGTCACCTAGTGCAG	10700 fluorescence intensity (a.u.)
